Source: PubChem BioAssay AID1224826 (NIAID, 2016)
The whole screen tested about 17,000 reagents; shown is a random part of them. Of all reagents, about 1,110 (6.6%) got an active call. 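Active means lowered or raised reporter signal; replicate intensities are raw and not normalised per plate.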 Unmarked entries are inactive. The numbers tell different reagents against one gene apart. Some reagents were tested in more than one well and are listed for each. Not all columns of the deposit are shown. Reagent sequences are not shown.

Screen: 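Regulators of Tlr4 signalling leading to Tnf-alpha expression in macrophages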 (primary screen)
Cell system: RAW264.7 G9 macrophages from mouse bearing reporters for p65 (GFP) and the Tnf promoter (mCherry)
Reagent: siRNA pool against mouse genes, 100 nM
Timing: 16 h of LPS stimulation, after 2 days of siRNA transfection
Treatment: bacterial lipopolysaccharide (Salmonella minnesota R595), 10 ng/ml
Read-out: 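Nuclear mCherry signal of the Tnf promoter reporter measured by imaging after background removal, scaled to each plate median and turned into robust z-scores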
Scale: Tnf reporter robust z-score: higher = stronger Tnf promoter reporter signal after LPS
Active means: 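a well counts as active at a score of -1.3 or below (Tlr4 knock-down control median) or above 3 (raised signal); controls and wells holding fewer than 50 cells are excluded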
Meaning of the calls: active = Tnf reporter clearly lowered or raised; inactive = no clear change in Tnf reporter

Gene,pool no.,Tnf reporter robust z-score,fewer than 50 cells in well
Asf1b,1,0.13,enough cells in well
Cox5b,1,0.46,enough cells in well
2210408O09Rik (retired record),1,1.82,enough cells in well
Ckmt2,1,5.01 (active),enough cells in well
Omp,1,-0.64,enough cells in well
Vasp,1,0.72,enough cells in well
Hmg20b,1,-0.95,enough cells in well
P2ry2,1,-1.64 (active),enough cells in well
Radil,1,-1.63 (active),enough cells in well
Larp1b,1,-0.55,enough cells in well
A530016L24Rik,1,-0.18,enough cells in well
Magea3,1,1.59,enough cells in well
Atp1a3,1,-0.26,enough cells in well
Bspry,1,,fewer than 50 cells per well; well left out of calls
Rhox2a,1,,fewer than 50 cells per well; well left out of calls
Pmis2,1,,fewer than 50 cells per well; well left out of calls
Actr3b,1,-0.29,enough cells in well
Dna2,1,0.06,enough cells in well
Vps41,1,0.81,enough cells in well
En1,1,0.76,enough cells in well
Ly6g6c,1,-0.14,enough cells in well
Or9i14,1,0.73,enough cells in well
Armc9,1,,fewer than 50 cells per well; well left out of calls
Or5ac25,1,-0.32,enough cells in well
Or5ac25,2,-0.35,enough cells in well
Rnpepl1,1,1.24,enough cells in well
Otog,1,0.38,enough cells in well
LOC381853,1,0.46,enough cells in well

Continued, starting with the last 2 of the part before.
Gene,pool no.,Tnf reporter robust z-score,fewer than 50 cells in well
Otog,1,0.38,enough cells in well
LOC381853,1,0.46,enough cells in well
Mynn,1,-0.64,enough cells in well
Timd2,1,0.09,enough cells in well
Zbtb11,1,1.26,enough cells in well
Sap30bp,1,-0.45,enough cells in well
Fabp5,1,0.48,enough cells in well
Mgat4a,1,1.42,enough cells in well
Flt4,1,1.84,enough cells in well
Grk3,1,0.01,enough cells in well
Grk3,1,-0.35,enough cells in well
Tars3,1,0.2,enough cells in well
Lypd11,1,0.04,enough cells in well
Rac1,1,0.84,enough cells in well
1700001F09Rik,1,,fewer than 50 cells per well; well left out of calls
Cdh16,1,-0.67,enough cells in well
Vmn2r57,1,0.37,enough cells in well
Rsl24d1,1,2.03,enough cells in well
Ptgdr2,1,-0.13,enough cells in well
Cdpf1,1,-0.38,enough cells in well
Teddm1a,1,2.34,enough cells in well
Airim,1,0.32,enough cells in well
Esrp1,1,,fewer than 50 cells per well; well left out of calls
Ces2g,1,0.04,enough cells in well
Anxa2,1,-0.9,enough cells in well
Slc22a8,1,1.36,enough cells in well
Mtag2,1,-0.33,enough cells in well
Mmachc,1,,fewer than 50 cells per well; well left out of calls
Gm9946,1,0.03,enough cells in well
Pum3,1,0.08,enough cells in well
Cks1b,1,-1.13,enough cells in well
Ddx18,1,-0.92,enough cells in well
